These are yes or no findings as the source states them, for the method shown. Binding seen in cells or lysates may run through a third protein. A yes stands for co-enrichment or nearness to the bait. Other partners may have been found. No binding means not detected with the bait. Blank lines part the entries; values can stand above or below the binder they belong to.
Molecular target: EGFP-TEV-sNASP (human) (UniProt P49321)
Test: affinity purification with mass spectrometry; GFP-Trap pull-down of eGFP-sNASP from HEK293-F, TEV release, 1D native gel; bands cut out, in-gel digestion, LC-MS/MS

binding: no binding
B1: DNAJC9 (protein, UniProt Q8WXX5 1-260)
chain: MGLLDLCEEVFGTADLYRVLGVRREASDGEVRRGYHKVSLQVHPDRVGEGDKEDATRRFQILGKVYSVLSDREQRAVYDEQGTVDEDSPVLTQDRDWEAYWRLLFKKISLEDIQAFEKTYKGSEEELADIKQAYLDFKGDMDQIMESVLCVQYTEEPRIRNIIQQAIDAGEVPSYNAFVKESKQKMNARKRRAQEEAKEAEMSRKELGLDEGVDSLKAAIQSRQKDRQKEMDNFLAQMEAKYCKSSKGGGKKSALKKEKK

binding: binds
B2: UBR7 (protein, UniProt Q8N806 1-425)
chain: MAGAEGAAGRQSELEPVVSLVDVLEEDEELENEACAVLGGSDSEKCSYSQGSVKRQALYACSTCTPEGEEPAGICLACSYECHGSHKLFELYTKRNFRCDCGNSKFKNLECKLLPDKAKVNSGNKYNDNFFGLYCICKRPYPDPEDEIPDEMIQCVVCEDWFHGRHLGAIPPESGDFQEMVCQACMKRCSFLWAYAAQLAVTKISTEDDGLVRNIDGIGDQEVIKPENGEHQDSTLKEDVPEQGKDDVREVKVEQNSEPCAGSSSESDLQTVFKNESLNAESKSGCKLQELKAKQLIKKDTATYWPLNWRSKLCTCQDCMKMYGDLDVLFLTDEYDTVLAYENKGKIAQATDRSDPLMDTLSSMNRVQQVELICEYNDLKTELKDYLKRFADEGTVVKREDIQQFFEEFQSKKRRRVDGMQYYCS

— paper PMC9560165
